Data as given in PubChem BioAssay AID1259298 (Sanger Institute, 2017).

- Assay: 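Kinase knock-downs that cut colorectal cancer cell viability or act with targeted drugs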 (primary screen)
- Cell system: HT55 human colorectal cancer cell line
- Reagents: siRNA pool against human genes
- Challenge: anchor drug BYL719 1 µM, cetuximab 5 µg/ml or trametinib 10 nM, or DMSO vehicle alone
- Detection: 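Replicate-averaged viability versus wells of non-targeting pool; knock-down-only robust z-score; per-drug synergy score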
- Scale: robust z-score, knock-down alone: higher = more cells remaining; low means essential gene; viability vs control pool, no drug: higher = more viable cells
- Units: viability vs control pool, no drug in fraction
- Call rule: 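a gene counts as essential if its knock-down-alone robust z-score falls under -3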
- Calls: active = essential (knock-down alone); inactive = no change alone
The whole screen tested 794 reagents; below is a part drawn at random. 20 of all reagents (2.5%) count as active. 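Calls rest only on the knock-down-alone score; drug synergy scores played no part in them.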 No viability above 1 is reported: the scale is capped. Not all columns of the deposit are shown. The record does not give: the amount of reagent, the time to read-out.

Silencing of PINK1 (PTEN induced kinase 1) gave: robust z-score, knock-down alone 0.58; viability vs control pool, no drug 1; inactive.
MPP3 (MAGUK p55 scaffold protein 3) scored robust z-score, knock-down alone -0.37; viability vs control pool, no drug 0.926; inactive.
PANK3 (pantothenate kinase 3) gave robust z-score, knock-down alone 0.58; viability vs control pool, no drug 1; inactive.
With knock-down of CSNK1A1L (casein kinase 1 alpha 1 like), the record shows robust z-score, knock-down alone 0.58; viability vs control pool, no drug 1; inactive.
With knock-down of RIPK3 (receptor interacting serine/threonine kinase 3), the screen gave robust z-score, knock-down alone 0.58; viability vs control pool, no drug 1; inactive.
For PKIB (cAMP-dependent protein kinase inhibitor beta), the entry reads robust z-score, knock-down alone 0.58; viability vs control pool, no drug 1; inactive.
Against ARAF (A-Raf proto-oncogene, serine/threonine kinase), the entry reads robust z-score, knock-down alone 0.58; viability vs control pool, no drug 1; inactive.
After knock-down of CDK6 (cyclin dependent kinase 6), the record shows robust z-score, knock-down alone -1.51; viability vs control pool, no drug 0.836; inactive.
TGFBR1 (transforming growth factor beta receptor 1) showed robust z-score, knock-down alone 0.58; viability vs control pool, no drug 1; inactive.
For MPP1 (MAGUK p55 scaffold protein 1) the deposit lists robust z-score, knock-down alone 0.58; viability vs control pool, no drug 1; inactive.
With knock-down of NUP107 (nucleoporin 107), the screen gave robust z-score, knock-down alone -3.4; viability vs control pool, no drug 0.689; active.
Depletion of TTBK1 (tau tubulin kinase 1) came out at: robust z-score, knock-down alone -0.424; viability vs control pool, no drug 0.921; inactive.
With knock-down of PAK2 (p21 (RAC1) activated kinase 2), the record shows robust z-score, knock-down alone 0.454; viability vs control pool, no drug 0.99; inactive.
Silencing of GCK (glucokinase) gave: robust z-score, knock-down alone 0.452; viability vs control pool, no drug 0.99; inactive.
PCK1 (phosphoenolpyruvate carboxykinase 1) scored robust z-score, knock-down alone -1.52; viability vs control pool, no drug 0.836; inactive.
With knock-down of PFKFB3 (6-phosphofructo-2-kinase/fructose-2,6-biphosphatase 3), the screen gave robust z-score, knock-down alone -1.53; viability vs control pool, no drug 0.835; inactive.
After knock-down of PTPN11 (protein tyrosine phosphatase non-receptor type 11) the results were robust z-score, knock-down alone 0.58; viability vs control pool, no drug 1; inactive.
With knock-down of AURKB (aurora kinase B) the results were robust z-score, knock-down alone 0.201; viability vs control pool, no drug 0.97; inactive.
Knock-down of RYK (receptor like tyrosine kinase) resulted in: robust z-score, knock-down alone 0.58; viability vs control pool, no drug 1; inactive.
FCSK (fucose kinase) scored robust z-score, knock-down alone -0.245; viability vs control pool, no drug 0.936; inactive.
PIM2 (Pim-2 proto-oncogene, serine/threonine kinase) showed robust z-score, knock-down alone -0.192; viability vs control pool, no drug 0.94; inactive.
WEE1 (WEE1 G2 checkpoint kinase) showed robust z-score, knock-down alone -2.89; viability vs control pool, no drug 0.729; inactive.
Against CDK17 (cyclin dependent kinase 17) the deposit lists robust z-score, knock-down alone 0.58; viability vs control pool, no drug 1; inactive.
With knock-down of WNK4 (WNK lysine deficient protein kinase 4), the screen gave robust z-score, knock-down alone 0.58; viability vs control pool, no drug 1; inactive.
Depletion of NME3 (NME/NM23 nucleoside diphosphate kinase 3) came out at: robust z-score, knock-down alone 0.58; viability vs control pool, no drug 1; inactive.
With knock-down of MAP4K2 (mitogen-activated protein kinase kinase kinase kinase 2) the results were robust z-score, knock-down alone 0.58; viability vs control pool, no drug 1; inactive.
With knock-down of LMBR1 (limb development membrane protein 1), the screen gave robust z-score, knock-down alone 0.58; viability vs control pool, no drug 1; inactive.
Against GUCY2F (guanylate cyclase 2F, retinal), the entry reads robust z-score, knock-down alone -0.0582; viability vs control pool, no drug 0.95; inactive.
Against STK32B (serine/threonine kinase 32B), the entry reads robust z-score, knock-down alone -0.996; viability vs control pool, no drug 0.877; inactive.
Depletion of STK35 (serine/threonine kinase 35) came out at: robust z-score, knock-down alone 0.58; viability vs control pool, no drug 1; inactive.
For EFNA4 (ephrin A4), the entry reads robust z-score, knock-down alone 0.58; viability vs control pool, no drug 1; inactive.
PRKAG2 (protein kinase AMP-activated non-catalytic subunit gamma 2) gave robust z-score, knock-down alone 0.58; viability vs control pool, no drug 1; inactive.
After knock-down of RPS6KB2 (ribosomal protein S6 kinase B2), the screen gave robust z-score, knock-down alone 0.58; viability vs control pool, no drug 1; inactive.
After knock-down of IRAK2 (interleukin 1 receptor associated kinase 2) the results were robust z-score, knock-down alone 0.58; viability vs control pool, no drug 1; inactive.
Knock-down of PCBP1 (poly(rC) binding protein 1) gave: robust z-score, knock-down alone -0.128; viability vs control pool, no drug 0.945; inactive.
Against ACVRL1 (activin A receptor like type 1), the entry reads robust z-score, knock-down alone 0.58; viability vs control pool, no drug 1; inactive.

4 entries from above, set out differently.
Gene,"robust z-score, knock-down alone","viability vs control pool, no drug",call
PKIB (cAMP-dependent protein kinase inhibitor beta),0.58,1,inactive
"ARAF (A-Raf proto-oncogene, serine/threonine kinase)",0.58,1,inactive
CDK6 (cyclin dependent kinase 6),-1.51,0.836,inactive
TGFBR1 (transforming growth factor beta receptor 1),0.58,1,inactive
